Over roughly 33,000 sequences, “E-score (-0.5 to 0.5)” has its median near -0.015; the highest 2% begin near 0.3. This is one part of the list.
The sequences below were run against T1, Abf1 (UniProt P14164) (assay: PBM E-score (8-mer binding enrichment) (E-score (-0.5 to 0.5)); higher = stronger / more preferred TF binding). Conditions: protein concentration: 200 nM; construct: GST-full length.
T1 sequence: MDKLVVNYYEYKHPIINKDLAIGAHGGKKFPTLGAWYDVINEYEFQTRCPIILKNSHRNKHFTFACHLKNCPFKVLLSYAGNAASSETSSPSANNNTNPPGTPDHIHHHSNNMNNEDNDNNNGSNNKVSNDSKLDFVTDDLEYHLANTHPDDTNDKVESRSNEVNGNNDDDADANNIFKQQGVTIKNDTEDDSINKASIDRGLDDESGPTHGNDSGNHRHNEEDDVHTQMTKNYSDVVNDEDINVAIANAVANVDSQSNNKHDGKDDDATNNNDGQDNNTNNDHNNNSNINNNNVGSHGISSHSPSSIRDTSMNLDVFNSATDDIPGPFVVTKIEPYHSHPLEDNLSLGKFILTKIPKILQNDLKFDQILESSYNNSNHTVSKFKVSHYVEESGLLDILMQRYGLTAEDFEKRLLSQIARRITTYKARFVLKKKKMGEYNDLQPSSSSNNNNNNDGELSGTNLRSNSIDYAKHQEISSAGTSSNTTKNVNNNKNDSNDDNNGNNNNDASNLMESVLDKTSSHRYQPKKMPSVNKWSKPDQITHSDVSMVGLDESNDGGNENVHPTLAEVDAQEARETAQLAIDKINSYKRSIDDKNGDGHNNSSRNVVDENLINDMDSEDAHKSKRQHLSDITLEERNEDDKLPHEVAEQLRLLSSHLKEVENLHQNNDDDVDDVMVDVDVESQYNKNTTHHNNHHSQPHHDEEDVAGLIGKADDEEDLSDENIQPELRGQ
Summary of the method: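 Detection of bound protein used fluorescent anti-GST, with scans normalised by masliner. The proteins were GST-tagged yeast transcription factors applied at about 100-200 nM to universal all-10-mer Agilent arrays made double-stranded by primer extension. Each ungapped eight-base word, pooled with its reverse complement, was scored with an E-score from the Universal PBM Analysis Suite.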

Sequence	PBM E-score
AGGCGCGG	-0.136
TAAACTTA	0.139
CTGTTTCA	-0.0487
ATGGGAGA	-0.177
GCGAAGCC	-0.277
CCGAAAAG	0.0135
AGGGTCCC	-0.265
ATCCCTGA	-0.0627
CAATATCC	-0.00513
CCGGCTCC	-0.21
AGTGCGGA	-0.0906
AGGGCCAC	-0.143
CTGTCTCA	0.0534
ACGTAATG	0.258
AAACAGAT	0.0674
AGCTTTGG	-0.058
GTTCGACA	0.108
CAGCCGAG	-0.248
CCATTTCC	-0.0246
AATTAAAT	0.0825
CACGATAC	0.255
GCGTTTTA	0.00291
AATAATAA	0.225
TCACGCCA	0.113
GTCCAAGA	-0.112

Sequence	PBM E-score
TAGTTGAA	0.0437
TATAGGCA	-0.0446
AGACTCCA	-0.0568
AAGTACCA	0.0667
GGTAAGGA	-0.214
ATTGCTTG	0.0997
AAGCTGGT	-0.0937
TGAAGCCA	0.0544
ATAACAGC	0.0681
CCACGTTC	-0.0808
CTCTCAAA	0.00774
AAAACAAT	0.0324
CGTCCACC	-0.0672
GACTTCAC	0.169
ATCCTTCA	-0.0543
CATTGGGC	-0.24
GGCTTAAA	0.0563
GCACTCAC	-0.166
GCGAGCGC	-0.0773
CAGTGATC	0.366
CCATAATA	0.137
CCCTGAGG	-0.109
AGATAGTC	-0.00051
AAAAGGTT	-0.0931
ATTCATCC	-0.00341

Sequence	PBM E-score
CGTATTAG	0.241
TCTAGAGA	-0.289
AGATCGAA	0.0897
GGCTGAAA	0.0806
CTCTCGCC	-0.243
GCGGGAAA	0.0281
GAATTACA	0.0246
ATGTCGGA	-0.0366
GTTTCTTA	0.15
CCCATCGC	-0.188
AGTGGCCG	-0.182
CGTGACCC	0.0466
CAATGAGA	-0.0863
ACGGTTAT	0.146
CCTTGGAG	-0.167
ACCAGGTA	-0.0855
AAATTGGA	0.15
AACGATTG	0.221
AGGTAGTG	-0.012
ACCGTCCT	-0.052
CGGCCAAC	-0.133
ATCCCTAA	-0.0343
AAAGCCGC	-0.312
GCAGCGGC	-0.173
GAGTGTGA	0.208

Sequence	PBM E-score
GAGAAACA	0.0661
CGGAGGGA	-0.175
CCGTTGCG	0.245
CACACGTA	0.163
ACCCATCT	0.0981
CCACTTGC	-0.0793
CAAGAACA	0.0504
GGTATGTA	-0.0209
ATCTCCGC	-0.0314
GAGATGGA	-0.173
CGCAAAGC	-0.053
ACGAGGGA	0.0996
CTCCGAAA	-0.148
AAATGAAA	0.214
AGGCTTAA	-0.129
CGTCGGAA	0.213
CGACTCGA	0.0259
AGGATTCC	-0.182
CTAGATGC	0.0769
CCATCTCC	-0.0348
GGCCGCCA	-0.112
AGCTCTTA	-0.00859
AGCCCATA	-0.0755
GACTGTGA	0.0113
ATAGGCAA	-0.193

Sequence	PBM E-score
ACTCGCTC	-0.0894
ATGTTATA	0.125
AGGAACCT	-0.114
CTGAGACA	0.0887
TTAAGCAA	0.0776
AGTTTAAG	-0.109
CTCAGGAA	-0.0849
GATTAGGA	0.133
GCCGGACA	-0.00605
ACGTCGGG	0.00065
TAATTCTA	-0.0318
GCGCTCGA	-0.0265
CTCCTGGA	-0.105
CCGCGTTA	-0.0652
ATCCAGTG	0.0711
TTCCTAAA	-0.099
GCATCACC	-0.101
GGTGACAA	0.423
CCGGCCGG	-0.041
CAATACGC	0.0113
CTGAACGC	-0.123
AGAAGTCC	-0.226
CCCGGCAA	-0.0051
GCCCTGCC	-0.284
AGGTGAGG	0.115

Sequence	PBM E-score
TCGGCGAA	0.00757
GCTTGCCA	0.0272
AGCGCGCT	-0.284
ACTACTAG	0.085
AGGTATTA	0.145
CTACCGCA	-0.204
AAGAGGTG	-0.108
ATTAAGTC	0.0599
CATAATCG	0.148
CTGAAGTC	-0.113
ACTCTAAA	-0.0224
GGACTCTA	-0.272
ACGGCGAG	0.111
ACCACGTG	-0.0911
ACGTGTAG	-0.0356
GCATCCCC	-0.147
GCATACAA	0.133
AACGGGAA	0.166
AATGAAGT	-0.0259
TCAAATGA	0.075
ATATCGGG	0.018
AGTCACCC	-0.0187
CGTCGGTA	0.0448
GAATAAAA	0.132
GCTTGATA	0.136

Sequence	PBM E-score
ACCAGCGC	-0.0959
AGGGCAGC	-0.179
ATGCACAA	-0.0115
AAACATGG	-0.198
TCCTAAGA	-0.0983
ATATGATG	0.191
GTTGTAAA	-0.0535
AAGTGCAA	0.0101
TGTGATAA	0.297
CAACCGGG	-0.116
TCGCCCAA	-0.0297
ATGAATAC	0.148
TGATTCAA	0.0649
CACATGGA	0.00533
TATACTGA	0.232
ACAAAGTG	0.172
CTCATAGA	-0.0846
ACGCGCGG	0.0477
ACAATCGA	-0.0266
ATTATTAA	0.199
TGAAAAAA	0.0184
CACGCCGG	-0.0297
CGTTTGCC	0.0411
AGATAATG	0.0861
ATGAGGAC	0.0336

Sequence	PBM E-score
GCCATCGC	-0.0666
ACAGGGAA	-0.153
AGCCCAGC	-0.184
AATTGTAA	-0.121
ACGCTCGC	0.0194
AGAGTCTG	-0.187
GGAGCTAC	-0.211
TAGCCAGA	-0.0467
AGCTAATC	0.142
GTCCACGA	0.223
GTACTCGA	-0.0155
CATATGAA	0.0102
GAGATCTA	-0.121
TGTTACAA	0.134
CTTTGGTA	0.0379
ATTAACAC	0.213
GCCCACCA	-0.236
CCCAAGCG	0.0254
AACTTGTA	0.00627
CTTAAAGA	-0.195
CATAACAG	-0.0699
AGGAACGG	0.0997
AAGAACCC	-0.182
TAGACGAA	0.338
GAGTGTCA	0.163

Sequence	PBM E-score
AGAGTGCA	-0.113
GGAGTGTA	-0.184
ATTTACCC	-0.014
ACCATAAA	0.141
CCCAATAC	-0.137
CGATGATA	0.305
CAGGGTCC	-0.194
ACGATGTA	0.203
CAGATTAC	0.0682
ACAGTGGA	0.127
CATAGCTC	-0.143
CGAGCGTA	0.109
AACTCGAG	-0.0947
GAAGGGAA	-0.157
AAAGATCG	0.157
CGTCTCAG	0.0175
CTTAATAC	0.129
ACCTCTCC	-0.267
TAAGACTA	-0.0858
GAGAATCC	-0.00411
GAATTTGA	0.0683
TACGCTCA	0.0112
CGGAGAAC	-0.184
CAGGGAAG	-0.338
CTTCAATA	0.0545

Sequence	PBM E-score
TGGCGAAA	-0.144
TAGCACAA	-0.106
GTGATAAA	0.412
GCGTCCAA	-0.114
CAGAAAGG	-0.12
TTACGCAA	0.0864
AGTCACAG	0.0551
CCCCCGCA	-0.263
GTACAGTA	-0.0741
AACAGTGA	0.201
CAATACCC	0.116
TCCGAAGA	-0.0522
CGCAATAG	-0.0336
CGATGGCA	-0.244
ACCGACGG	0.147
AACGCATA	0.111
CTGTGTTC	-0.0651
ATTAGGTC	0.177
AGCACTTA	-0.0307
CTACGTTA	0.152
TAGTACTA	0.0338
GTTGTTCA	0.0687
ACCGCCGG	-0.27
GAATTAAA	0.00779
CCCAACAA	0.0712

Sequence	PBM E-score
AGCATGCT	-0.103
CGACACAG	0.077
GGTCTCAA	-0.103
ATTATTAG	0.164
GTCGTCAC	0.35
ACGGTGAA	0.193
GCCTGTGA	-0.169
CCTAAACC	-0.0979
CTAGATCC	0.057
CACATACA	-0.183
CAAACTTA	0.134
ATTTTGGG	-0.0842
CTAAACCC	-0.083
CACCACGG	-0.187
AAGCTTAA	-0.204
GCTCTGCA	-0.285
AACTACCA	-0.066
GGTCGTCA	0.262
CCAGTTTC	-0.0969
TTCTCAAA	0.0846
TCCAAGAA	-0.156
CCACGGAG	0.0851
AAGCTAAG	-0.137
CACCCAGG	-0.214
ACCGAGTA	-0.118

An excerpt of these results, with each value named.
AGCATGCT
  PBM E-score = -0.103
GGTCTCAA
  PBM E-score = -0.103
ATTTTGGG
  PBM E-score = -0.0842
CTAAACCC
  PBM E-score = -0.083

Next part.

Sequence	PBM E-score
TCCCGCCA	-0.119
GGCTTATA	-0.00496
CTGGTATA	0.0245
TATTGCGA	0.171
GAGCTGAA	-0.118
ATATATTG	-0.139
CTATTTAC	0.204
ATTGGGCG	-0.163
AATCACGC	0.127
CGTAGGTC	0.00797
GCGAGTGA	0.137
AACATCAA	0.118
ACTAAGAT	0.243
TGGTAAAA	-0.0106
CAATCCGC	0.101
CGAGAGAC	0.0295
CGTCTCAC	0.105
AATGCAAG	-0.0551
ATACCTAT	-0.0121
ACTTCTCC	-0.134
ATAGAGGG	-0.102
ACTACAGT	0.0322
CAAGCCTG	-0.122
GCGTTCAC	-0.00207
ATGTTGCC	-0.0429

Sequence	PBM E-score
CATAGACA	-0.0475
ATTTGTAC	0.0998
GAGTCTGA	-0.159
TCATGTAA	0.0458
AAATGCGT	0.128
AGCGGCCC	-0.291
CATTCCTC	0.0225
GAAACCTA	-0.202
AAGATTAA	0.0801
GACCCTTA	-0.0356
ATGCTTAA	-0.114
CATCACGC	0.191
AAGCTACA	0.00329
GCATAAAA	0.108
AAGCACCT	-0.0519
CCGGGTGA	0.12
AAGTGCGT	-0.136
CTCGGCAG	-0.0597
ATATTGGC	0.105
CACCTGCG	-0.0256
CGTCCCGC	-0.0216
AACGTTCG	0.07
ACTCGTGA	0.162
ATGTGAGC	-0.0727
TCAGGTCA	0.0438

An excerpt of these results, in markdown.

| Sequence | PBM E-score |
| --- | --- |
| CATCACGC | 0.191 |
| AAGCTACA | 0.00329 |
| GCATAAAA | 0.108 |
| AAGCACCT | -0.0519 |
| CCGGGTGA | 0.12 |
| AAGTGCGT | -0.136 |

(further entries)

Sequence	PBM E-score
AAGCTTTG	-0.169
AAGATAGC	-0.0167
AACTTCCG	0.139
ATCCGCTG	0.0713
ACCGTCCC	0.134
CTTCTAGA	-0.112
GAAAGAGA	-0.308
ATGCAGTA	0.062
ACTTTAAT	0.0587
AACAGAAT	-0.102
ACGGAGCG	0.14
GTATTCAA	0.0611
CTAAATCA	0.214
AGAAATAG	0.0373
CATTTTGG	0.124
GATACACA	0.0374
CTCTCCGA	-0.209
ACACTGCT	-0.318
GTACCCGA	-0.137

Source: the supplement of paper PMC3334620
